# In all, about 1,600 compounds went through this assay and about 1,100 (69%) were called active. No stated cut-off is given here; in the data, active means inhibition above about 50%; inactive means the rest. The set was probably picked from earlier hits. Only a part is listed here, and it is no random draw.
# By UniProt entry, the sequences of proteins in these tests, tags left out. Where a name states a change or a piece, a line headed by the entry shows the natural chain unless it says otherwise.
# UniProt P04054: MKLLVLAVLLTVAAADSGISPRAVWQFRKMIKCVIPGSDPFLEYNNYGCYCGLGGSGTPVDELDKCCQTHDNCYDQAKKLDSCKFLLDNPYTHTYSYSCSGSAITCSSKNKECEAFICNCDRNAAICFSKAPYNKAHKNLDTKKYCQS
# Target: Phospholipase A2 (Homo sapiens) (UniProt P04054)
# Assay: human phospholipase A2 activity blockers – biochemical, single concentration, uHTS hits, counter-screen for ATG4B inhibitor project (AID 588402)
# Settings: purified PLA2, NBD-C6-HPC fluorescence, 45 min; at 8.33 µM; active compounds read high
row,Compound,inhibition
1,Cc1cc(OCc2cc(C(=O)O)oc2C)c2c3c(c(=O)oc2c1)CCCC3,inactive: 39.1%
